Drawing on US20130034493A1, this text covers binding for one molecule.

Results are given in words; binding and its absence hold for the method and conditions named. In cells and extracts the contact can be indirect. A yes stands for co-enrichment or nearness to the bait. Other partners may have been found. Where a sequence is shown, tags or fusion partners need not be part of it.

Experiment [1] has as its target T1, recombinant BMP4 (rBMP4) (mouse) (UniProt P21275).
T1 sequence (looked up): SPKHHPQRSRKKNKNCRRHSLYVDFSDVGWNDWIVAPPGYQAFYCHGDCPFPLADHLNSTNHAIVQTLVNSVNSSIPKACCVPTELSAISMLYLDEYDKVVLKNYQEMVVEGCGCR
In words: ELISA; co-immunoprecipitation; mass spectrometry.

The target in experiment [2] is T1, recombinant BMP4 (rBMP4) (mouse). Kind of experiment: pull-down, tandem mass spectrometry of the gel slice (FIG. 14).

B1: mouse recombinant Olfml3-FLAG tagged protein (rOlfml3-FLAG) (protein, not shown: small tags and cut ends)
chain: QQHHLVEYMERRLAALEERLAQCQDQSSRHAAELRDFKNKMLPLLEVAEKERETLRTEADSISGRVDRLEREVDYLETQNPALPCVELDEKVTGGPGAKGKGRRNEKYDMVTDCSYTVAQVRSMKILKRFGGSVGLWTKDPLGPAEKIYVLDGTQNDTAFVFPRLRDFTLAMAARKASRIRVPFPWVGTGQLVYGGFLYYARRPPGGPGGGGELENTLQLIKFHLANRTVVDSSVFPAESLIPPYGLTADTYIDLAADEEGLWAVYATRDDDRHLCLAKLDPQTLDTEQQWDTPCPRENAEAAFVICGTLYVVYNTRPASRARIQCSFDASGTLAPERAALSYFPRRYGAHASLRYNPRERQLYAWDDGYQIVYKLEMKKKEEEV
As for B1, the binding result in experiment [1] and in experiment [2] was “binds” in each case.
